Binding screen against folded nucleic acids

Oligonucleotides screened, 5′ to 3′:
TPP: TPP riboswitch RNA three-way junction, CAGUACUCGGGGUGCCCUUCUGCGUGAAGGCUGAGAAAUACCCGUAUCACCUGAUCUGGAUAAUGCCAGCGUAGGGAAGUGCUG. About 24,000 compounds screened, about 160 hits.
SAM-II: SAM-II riboswitch RNA pseudoknot, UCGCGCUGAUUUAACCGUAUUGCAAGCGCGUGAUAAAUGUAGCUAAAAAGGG. About 21,000 compounds screened, about 200 hits.
PreQ1: PreQ1 riboswitch RNA pseudoknot, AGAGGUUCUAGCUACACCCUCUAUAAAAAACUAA. From B. subtilis. About 24,000 compounds screened, about 170 hits.

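Each compound is printed as two spots on a slide made to bind it covalently, so it has no test concentration; the read-out is fluorescence of the bound, labelled oligonucleotide. The data file lists only calls. An earlier report of the laboratory on the PreQ1, TPP and SAM-II riboswitches (doi:10.1038/s41467-019-09493-3) used 1 µM RNA for 2 h and required a mean Z-score above 3 (spot signal-to-noise against the whole library), a score well above that on a control array, and duplicate spots agreeing (coefficient of variation under 100); it then also set aside compounds that hit other targets, which this list keeps. The cut-offs behind this list may differ. A missing hit is not proof of no binding, and a hit is not a measured affinity.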
A compound is marked active if it was called a hit and inactive if it was screened but was not.
This is an unselected part of the compounds tested.
A dash means that no call is listed here.

structure | TPP | SAM-II | PreQ1
NCC1CCN(C(=O)c2ccc(NCc3ccncc3)cc2)C1 (centres undefined) | inactive | inactive | inactive
Nc1ccnc(N2CCCC3(CCC(=O)N(CCc4ccccc4)C3)C2)n1 (centres undefined) | inactive | inactive | inactive
Cc1nc(N)cc(=O)[nH]1 | inactive | inactive | inactive
Cc1cccc2c(CCNC3CCN(C(=O)C4CCCO4)CC3)c[nH]c12 (centres undefined) | inactive | inactive | inactive
CCOC(=O)c1[nH]c(C(=O)O)c(OC(=O)CC)c1C | inactive | inactive | inactive
O=C(c1ccc2c(c1)OCCO2)N1CCC(n2cc(CCO)nn2)CC1 | inactive | inactive | inactive
CC(C)Oc1cccc(F)c1-c1ccc(N)cn1 | inactive | inactive | inactive
CC(C)(C)c1cc(N2CCN(CCO)CC2)n2ncc(-c3ccccc3Cl)c2n1 | inactive | - | inactive
N#CC1=C(N)N(c2ccccc2)C2=C(C(=O)CCC2)C1c1ccccc1 (centres undefined) | inactive | inactive | inactive
CCOc1ccc([C@@H]2C[C@H](c3ccccc3)n3nc(N)nc3N2)cc1 | inactive | inactive | inactive
Cc1oc(C(C)C)cc1C(=O)N1CC[C@@](C)(O)[C@@H](O)C1 | inactive | inactive | inactive
Nc1c2c(nc3sc4c(c13)CCCCC4)CCCCC2 | inactive | inactive | inactive
O=C(NCCc1cccc(C(F)(F)F)c1)c1cn(CC2CCCNC2)nn1 (centres undefined) | inactive | inactive | inactive
CO[C@H]1C[C@@H](O)C12CCN(c1cc(N3CCOCC3)ncn1)CC2 | inactive | inactive | inactive
C[C@@H]1CN(C[C@@H]2CN(C(=O)c3ccn4nnnc4c3)C[C@@H]2CO)C[C@H](C)O1 | inactive | inactive | inactive
Cc1csc(CCNCC2(O)CCCN(CCC3CCCCC3)C2=O)n1 (centres undefined) | inactive | inactive | inactive
c1cc2c(cc1N1CCC(N3CC[C@H]4CC[C@@H](C3)N4)CC1)OCO2 | inactive | inactive | inactive
O=C1Nc2cc(Br)ccc2C1=C1N=c2ccccc2=C1NO | inactive | inactive | inactive
CCN(CC)C(=O)c1cccc(S(=O)(=O)N2Cc3cnn(CCO)c3C2)c1 | inactive | inactive | inactive
Cc1cnn(Cc2ccc(Cl)cc2)c1NC(=O)N(CCO)CCO | inactive | inactive | inactive
Cc1ccc(C)c(NC(=O)c2nccnc2CO)c1 | inactive | inactive | inactive
O=c1oc2cc(O)ccc2cc1-c1nnc(Nc2ccc(F)cc2)s1 | inactive | inactive | inactive
O=[N+]([O-])c1ccc(Sc2cccc[n+]2[O-])c2nonc12 | inactive | inactive | inactive
COc1ccc(Br)cc1Cn1nnc(C(=O)Nc2cc(C)ccc2C)c1N | inactive | inactive | inactive
Cc1cccc(C)c1NCc1ccc(C(=O)O)s1 | inactive | - | inactive
CCOC(=O)C1=C(C)OC(N)=C(C(=O)OC(C)C)C12C(=O)Nc1ccccc12 (centres undefined) | inactive | inactive | inactive
Cc1ccc(OCCn2c(CCCO)nc3ccccc32)cc1 | inactive | inactive | inactive
Cc1cc2n(n1)SC(Nc1ccc(F)c(Cl)c1)N2 (centres undefined) | inactive | inactive | inactive
COc1c(NC=O)c2c(c([N+](=O)[O-])c1OC)C(=O)OC2 | inactive | inactive | inactive
CCCNC(=S)Nc1ccccc1 | inactive | inactive | inactive
CCS(=O)(=O)C1C(=O)N(C)C(S(=O)(=O)CC)C(=O)N1C (centres undefined) | inactive | inactive | inactive
Cc1ccc2oc(=O)n(CCC(=O)N3CCNCC3C(=O)NC3CC3)c2c1 (centres undefined) | inactive | inactive | inactive
CCn1c(=O)n(C)c2c(=O)n(C)c(=O)n(C)c21 | inactive | inactive | inactive
NCCOc1cccc(Cl)c1 | inactive | inactive | inactive
COc1cccc(-c2cc(C(F)(F)F)nc(NC3CCCC3)n2)c1 | inactive | inactive | inactive
CC(c1ccc2c(c1)OCCCO2)n1ccnc1-c1ccc(C#CCO)s1 (centres undefined) | inactive | inactive | inactive
Cc1nc2nc(CN)nn2c(C)c1CCC(=O)NCCc1ccc(Cl)cc1 | inactive | - | inactive
CCOc1cc(C2c3c(-c4cc(C)ccc4O)n[nH]c3C(=O)N2CCO)ccc1O (centres undefined) | inactive | - | inactive
O=c1cccc2n1CC1CC2CN(c2nc(NCCC3=CCCCC3)nc(N3CCCC3)n2)C1 (centres undefined) | inactive | inactive | inactive
C=CCn1c(=N)n(CC(O)C(C)(C)C)c2ccccc21 (centres undefined) | inactive | inactive | inactive
CCN(CC(O)Cn1c2ccccc2c2ccccc21)S(=O)(=O)c1ccc(Cl)cc1 (centres undefined) | inactive | inactive | inactive
O=C(CCc1ccncc1)N1C[C@H]2CNC[C@H]2C1 | inactive | inactive | inactive
CCOc1ccc(CN[C@H]2CCCCNC2=O)cc1COC(C)=O | inactive | inactive | inactive
c1cc(CNc2ncnc3sc4c(c23)CCCC4)ccn1 | inactive | - | inactive
ON=C1NC(C=Cc2ccccc2)Nc2ccccc21 (centres undefined) | inactive | inactive | inactive
Fc1cccc(-n2ncnc2C2CCCNCC2)c1 (centres undefined) | inactive | inactive | inactive
CC(NS(=O)(=O)NCc1ccccc1)c1nnc(N)s1 (centres undefined) | inactive | inactive | inactive
Cc1ccc(Nc2c(-c3ccsc3)nc3ncccn23)c(C)c1 | inactive | inactive | inactive
CN1C(=O)C2(CCCN(C(=O)c3cn(CCN)nn3)C2)c2ccccc21 (centres undefined) | inactive | inactive | inactive
N[C@H]1CC[C@@H](n2cc(C(=O)NCc3nc(-c4cnccn4)n[nH]3)nn2)CC1 | inactive | inactive | inactive
CNC(=O)[C@@H]1C[C@H](N)CN1C(=O)c1ccc2c(c1)nc(C)n2-c1ccccc1 | inactive | inactive | inactive
N#CC1=C(N)Oc2[nH]nc(C(F)(F)F)c2C1c1cccnc1 (centres undefined) | inactive | inactive | inactive
Cc1nonc1C1CCCN1C(=O)CCc1cc2n(n1)CCCNC2 (centres undefined) | inactive | inactive | inactive
COc1ccc(Cn2c(C(=O)O)c(CNCC3CCCO3)c3ccccc32)cc1 (centres undefined) | inactive | - | inactive
N[C@H]1CN(C(=O)CCCc2ccc(F)cc2)C[C@@H]1C1CC1 | inactive | inactive | inactive
CCC(C)NC(=S)Nc1ccccc1 (centres undefined) | inactive | inactive | inactive
COc1ccc([N+](=O)[O-])cc1N(CC(O)CN1C(=O)NC(C)(C)C1=O)S(=O)(=O)c1ccc(C)cc1 (centres undefined) | inactive | inactive | inactive
O=C(NCC(O)c1ccncc1)c1cc(-c2ccccc2)on1 (centres undefined) | inactive | inactive | inactive
Cc1cc(NC2CCCC2)n2nc(-c3ccccc3)c(C)c2n1 | inactive | - | inactive
COc1ccc(-c2nccn2-c2cccc(CO)c2)c(Cl)c1OC | inactive | inactive | inactive
COc1ccccc1OCCCCn1c(C(C)O)nc2ccccc21 (centres undefined) | inactive | inactive | inactive
O=c1cc(-c2ccc(O)cc2)oc2c(O)c(O)c(O)c(O)c12 | inactive | inactive | inactive
CCc1ccc(CNCCc2ccc3c(c2)OCO3)cc1 | inactive | inactive | inactive
O=C(c1nc2ccc(Cl)cn2c1F)N1CCC2(CC1)[C@H](O)C[C@@H]2O | inactive | inactive | inactive
N#CC1=C(N)Oc2[nH]c(=O)[nH]c(=O)c2C1c1ccc(F)cc1 (centres undefined) | inactive | inactive | inactive

Calls as published in the ROBIN set (doi:10.1002/anie.202211358).